{"source": "the supplement of paper PMC8728848", "assay_in_all_cases": "glycan array binding signal (z-score within array); higher = stronger binding", "conditions_in_all_cases": "glycan notation: IUPAC condensed, linker removed", "key": {"Gal6S(b1-4)Glc": {"biological_target": "Gal6S(b1-4)Glc", "in_short": "(§1)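 The binding signal is a Z-score computed within each array. Data were drawn from 3228 arrays in the Consortium for Functional Glycomics database, restricted to those with a known protein sequence. Scores were averaged over arrays of the same protein sequence at different concentrations or buffers, and over linkers, and negative values can be taken as non-binding.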"}, "Gal6S(b1-4)Glc6S": {"biological_target": "Gal6S(b1-4)Glc6S", "in_short": "as §1"}, "Gal6S(b1-4)GlcNAc": {"biological_target": "Gal6S(b1-4)GlcNAc", "in_short": "as §1"}, "Gal6S(b1-4)GlcNAc6S": {"biological_target": "Gal6S(b1-4)GlcNAc6S", "in_short": "as §1"}, "GalNAc(a1-3)Gal": {"biological_target": "GalNAc(a1-3)Gal", "in_short": "as §1"}, "GalNAc(a1-3)GalNAc": {"biological_target": "GalNAc(a1-3)GalNAc", "in_short": "as §1"}, "[1]": {"biological_target": "GalNAc(a1-3)GalNAc(b1-3)Gal(a1-4)Gal(b1-4)Glc", "in_short": "as §1"}, "[2]": {"biological_target": "GalNAc(a1-3)GalNAc(b1-3)Gal(a1-4)Gal(b1-4)GlcNAc", "in_short": "as §1"}, "GalNAc(b1-3)Gal": {"biological_target": "GalNAc(b1-3)Gal", "in_short": "as §1"}, "[3]": {"biological_target": "GalNAc(b1-3)Gal(a1-4)Gal(b1-4)GlcNAc", "in_short": "as §1"}, "[4]": {"biological_target": "GalNAc(b1-3)Gal(a1-4)Gal(b1-4)GlcNAc(b1-3)Gal(b1-4)Glc", "in_short": "as §1"}, "[5]": {"biological_target": "GalNAc(b1-3)Gal(a1-6)Gal(b1-4)Glc", "in_short": "as §1"}, "GalNAc(b1-3)GalNAc": {"biological_target": "GalNAc(b1-3)GalNAc", "in_short": "as §1"}, "GalNAc(b1-3)GlcNAc": {"biological_target": "GalNAc(b1-3)GlcNAc", "in_short": "as §1"}, "GalNAc(b1-4)Gal(b1-4)Glc": {"biological_target": "GalNAc(b1-4)Gal(b1-4)Glc", "in_short": "as §1"}, "GalNAc(b1-4)GlcNAc": {"biological_target": "GalNAc(b1-4)GlcNAc", "in_short": "as §1"}, "[6]": {"biological_target": "GalNAc(b1-4)GlcNAc(b1-2)Man", "in_short": "as §1"}, "[7]": {"biological_target": "GalNAc(b1-4)GlcNAc(b1-2)Man(a1-3)[GalNAc(b1-4)GlcNAc(b1-2)Man(a1-6)]Man(b1-4)GlcNAc(b1-4)GlcNAc", "in_short": "as §1"}, "[8]": {"biological_target": "GalNAc(b1-4)GlcNAc(b1-3)GalNAc(b1-4)GlcNAc", "in_short": "as §1"}, "GalNAc(b1-4)GlcNAc6S": {"biological_target": "GalNAc(b1-4)GlcNAc6S", "in_short": "as §1"}, "GalNAc(b1-6)GalNAc": {"biological_target": "GalNAc(b1-6)GalNAc", "in_short": "as §1"}, "GalNAc3S(b1-4)GlcNAc": {"biological_target": "GalNAc3S(b1-4)GlcNAc", "in_short": "as §1"}, "GalNAc3S(b1-4)GlcNAc3S": {"biological_target": "GalNAc3S(b1-4)GlcNAc3S", "in_short": "as §1"}, "[9]": {"biological_target": "GalNAc3S(b1-4)[Fuc(a1-3)]GlcNAc", "in_short": "as §1"}, "GalNAc4S6S(b1-4)GlcNAc": {"biological_target": "GalNAc4S6S(b1-4)GlcNAc", "in_short": "as §1"}, "GalNAc6S(b1-4)GlcNAc": {"biological_target": "GalNAc6S(b1-4)GlcNAc", "in_short": "as §1"}, "Glc(a1-4)Glc": {"biological_target": "Glc(a1-4)Glc", "in_short": "as §1"}, "[10]": {"biological_target": "Glc(a1-4)Glc(a1-4)Glc(a1-4)Glc", "in_short": "as §1"}, "Glc(a1-6)Glc(a1-6)Glc": {"biological_target": "Glc(a1-6)Glc(a1-6)Glc", "in_short": "as §1"}, "[11]": {"biological_target": "Glc(a1-6)Glc(a1-6)Glc(a1-6)Glc", "in_short": "as §1"}, "Glc(b1-4)Glc": {"biological_target": "Glc(b1-4)Glc", "in_short": "as §1"}, "Glc(b1-6)Glc": {"biological_target": "Glc(b1-6)Glc", "in_short": "as §1"}, "GlcA(b1-3)Gal": {"biological_target": "GlcA(b1-3)Gal", "in_short": "as §1"}, "GlcA(b1-3)GlcNAc": {"biological_target": "GlcA(b1-3)GlcNAc", "in_short": "as §1"}, "GlcA(b1-6)Gal": {"biological_target": "GlcA(b1-6)Gal", "in_short": "as §1"}, "[12]": {"biological_target": "GlcA3S(b1-3)Gal(b1-4)GlcNAc(b1-2)Man", "in_short": "as §1"}, "[13]": {"biological_target": "GlcA3S(b1-3)Gal(b1-4)GlcNAc(b1-3)Gal(b1-4)Glc", "in_short": "as §1"}, "[14]": {"biological_target": "GlcNAc(a1-3)Gal(b1-4)GlcNAc", "in_short": "as §1"}, "[15]": {"biological_target": "GlcNAc(a1-4)Gal(b1-3)GlcNAc", "in_short": "as §1"}, "[16]": {"biological_target": "GlcNAc(a1-4)Gal(b1-4)GalNAc", "in_short": "as §1"}, "[17]": {"biological_target": "GlcNAc(a1-4)Gal(b1-4)GlcNAc", "in_short": "as §1"}, "[18]": {"biological_target": "GlcNAc(a1-4)Gal(b1-4)GlcNAc(b1-3)Gal(b1-4)Glc", "in_short": "as §1"}, "[19]": {"biological_target": "GlcNAc(a1-4)Gal(b1-4)GlcNAc(b1-3)Gal(b1-4)GlcNAc", "in_short": "as §1"}, "[20]": {"biological_target": "GlcNAc(a1-4)Gal(b1-4)GlcNAc(b1-3)Gal(b1-4)GlcNAc(b1-3)Gal(b1-4)GlcNAc", "in_short": "as §1"}, "[21]": {"biological_target": "GlcNAc(a1-4)Gal(b1-4)GlcNAc(b1-3)Gal(b1-4)[Fuc(a1-3)]GlcNAc(b1-3)Gal(b1-4)[Fuc(a1-3)]GlcNAc", "in_short": "as §1"}}, "note": "This is one part of the list.", "data": [{"binder": "AT3G09350(27) (Arabidopsis thaliana), Q84J81 (protein) MAKDGPNWDGLLKWSLSHADGTRPTRQLSEEDRKWFMEAMQSQTVDVVKRMKEITLVMQTPEQVLVEHGVTPEDIQDLLDELQEHVESIDMANDLHSIGGLVPLLSFLKNSHANIRAKAADVVSTIVQNNPRSQELVMETNALESLLSNFTSDTDIHARTQALGAISSLIRHNKPGVTAFKLANGYAGLRDALASDSVRFQRKALNLLQYLLQEDDSDRSIATGLGFPRVMMHLASSDDAEIREAALRGLLELSREKNDGSSSIDKSDEKLRQLLEERIKGITLMSQEDLETVKEERQLVDLLWSICYNEPSSLREKGLVVLPGEDALPPDVASKLFEPPLRASAANRNATEKKDEPMKLLGP", "values": [{"measurement": "glycan array binding signal (z-score)", "setting": "Gal6S(b1-4)Glc", "result": -0.106}, {"measurement": "glycan array binding signal (z-score)", "setting": "Gal6S(b1-4)Glc6S", "result": 0.228}, {"measurement": "glycan array binding signal (z-score)", "setting": "Gal6S(b1-4)GlcNAc", "result": -0.93}, {"measurement": "glycan array binding signal (z-score)", "setting": "Gal6S(b1-4)GlcNAc6S", "result": -0.56}, {"measurement": "glycan array binding signal (z-score)", "setting": "GalNAc(a1-3)Gal", "result": -0.077}, {"measurement": "glycan array binding signal (z-score)", "setting": "GalNAc(a1-3)GalNAc", "result": -0.182}, {"measurement": "glycan array binding signal (z-score)", "setting": "[1]", "result": -0.54}, {"measurement": "glycan array binding signal (z-score)", "setting": "[2]", "result": -0.307}, {"measurement": "glycan array binding signal (z-score)", "setting": "GalNAc(b1-3)Gal", "result": 0.212}, {"measurement": "glycan array binding signal (z-score)", "setting": "[3]", "result": 4.3}, {"measurement": "glycan array binding signal (z-score)", "setting": "[4]", "result": 0.298}, {"measurement": "glycan array binding signal (z-score)", "setting": "[5]", "result": -0.349}, {"measurement": "glycan array binding signal (z-score)", "setting": "GalNAc(b1-3)GalNAc", "result": -0.149}, {"measurement": "glycan array binding signal (z-score)", "setting": "GalNAc(b1-3)GlcNAc", "result": -0.629}, {"measurement": "glycan array binding signal (z-score)", "setting": "GalNAc(b1-4)Gal(b1-4)Glc", "result": 0.418}, {"measurement": "glycan array binding signal (z-score)", "setting": "GalNAc(b1-4)GlcNAc", "result": 7.59}, {"measurement": "glycan array binding signal (z-score)", "setting": "[6]", "result": -0.302}, {"measurement": "glycan array binding signal (z-score)", "setting": "[7]", "result": 0.202}, {"measurement": "glycan array binding signal (z-score)", "setting": "[8]", "result": -0.167}, {"measurement": "glycan array binding signal (z-score)", "setting": "GalNAc(b1-4)GlcNAc6S", "result": -0.93}, {"measurement": "glycan array binding signal (z-score)", "setting": "GalNAc(b1-6)GalNAc", "result": -1.04}, {"measurement": "glycan array binding signal (z-score)", "setting": "GalNAc3S(b1-4)GlcNAc", "result": -0.149}, {"measurement": "glycan array binding signal (z-score)", "setting": "GalNAc3S(b1-4)GlcNAc3S", "result": -0.031}, {"measurement": "glycan array binding signal (z-score)", "setting": "[9]", "result": -0.037}, {"measurement": "glycan array binding signal (z-score)", "setting": "GalNAc4S6S(b1-4)GlcNAc", "result": -0.972}, {"measurement": "glycan array binding signal (z-score)", "setting": "GalNAc6S(b1-4)GlcNAc", "result": -0.386}, {"measurement": "glycan array binding signal (z-score)", "setting": "Glc(a1-4)Glc", "result": 0.008}, {"measurement": "glycan array binding signal (z-score)", "setting": "[10]", "result": -0.261}, {"measurement": "glycan array binding signal (z-score)", "setting": "Glc(a1-6)Glc(a1-6)Glc", "result": -0.711}, {"measurement": "glycan array binding signal (z-score)", "setting": "[11]", "result": -0.182}, {"measurement": "glycan array binding signal (z-score)", "setting": "Glc(b1-4)Glc", "result": -0.234}, {"measurement": "glycan array binding signal (z-score)", "setting": "Glc(b1-6)Glc", "result": -0.976}, {"measurement": "glycan array binding signal (z-score)", "setting": "GlcA(b1-3)Gal", "result": -0.672}, {"measurement": "glycan array binding signal (z-score)", "setting": "GlcA(b1-3)GlcNAc", "result": -0.957}, {"measurement": "glycan array binding signal (z-score)", "setting": "GlcA(b1-6)Gal", "result": -0.136}, {"measurement": "glycan array binding signal (z-score)", "setting": "[12]", "result": -0.38}, {"measurement": "glycan array binding signal (z-score)", "setting": "[13]", "result": 0.438}, {"measurement": "glycan array binding signal (z-score)", "setting": "[14]", "result": -0.46}, {"measurement": "glycan array binding signal (z-score)", "setting": "[15]", "result": 0.413}, {"measurement": "glycan array binding signal (z-score)", "setting": "[16]", "result": -0.399}, {"measurement": "glycan array binding signal (z-score)", "setting": "[17]", "result": -0.466}, {"measurement": "glycan array binding signal (z-score)", "setting": "[18]", "result": -0.604}, {"measurement": "glycan array binding signal (z-score)", "setting": "[19]", "result": -0.069}, {"measurement": "glycan array binding signal (z-score)", "setting": "[20]", "result": -0.25}, {"measurement": "glycan array binding signal (z-score)", "setting": "[21]", "result": 0.47}]}]}
